# Measurements: PubChem BioAssay AID651640 (Broad Institute, 2012)
# The whole screen tested about 350,000 compounds, of which about 6,000 (1.7%) were called active. Inconclusive results, whose numbers are uncertain, are shown with a selection of clear calls. Cut-off read from the data, not from the text of the source: active = CPE inhibition above about 20% (passing the limit was not always enough); inconclusive = no clear call, values can overlap the other calls; tested in BHK-21 cells.
# Test: protection of cells from dengue 2 killing – plate reader, single concentration, primary screen (AID 651640);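 note: 0% = median of neutral control wells and 100% = median of positive control wells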
# Settings: DENV2-infected cells, cytopathic effect rescue, at 9.99 µM, stronger effect = higher value
row,SMILES,CPE inhibition
1,Clc1ccc(C=Cc2ccccn2)c(Cl)c1,active: 37.5%
2,CCC(CC)CN1CCN=C1Nc1ccccc1,inactive: -8.12%
3,COCCN1CCn2c(nc3cc(Nc4nnc(C)c5ccccc45)ccc32)C1,inactive: -0.137%
4,CC(C)NC(=O)Nc1ccc2c(c1)C(=O)N([C@H](C)CO)C[C@@H](C)[C@H](CN(C)S(=O)(=O)c1ccc(F)cc1)OCCCC[C@H](C)O2,inactive: -9.32%
5,CCS(=O)(=O)Nc1ccc2c(c1)C(=O)N(C)C[C@@H](OC)[C@@H](C)CN(CCC(F)(F)F)[C@@H](C)CO2,inactive: 2.18%
6,COc1ccc(NC(=O)N(C)C[C@@H]2Oc3c(NS(=O)(=O)c4ccc(OC)cc4)cccc3C(=O)N([C@H](C)CO)C[C@H]2C)cc1,inactive: -0.852%
7,CCS(=O)(=O)Nc1ccc2c(c1)C(=O)N(C)[C@@H]1CC[C@@H](CC(=O)NC3CCCCC3)O[C@H]1CO2,inconclusive: 29.9%
8,CNC[C@H]1Oc2ncc(-c3cccc(F)c3)cc2C(=O)N([C@H](C)CO)C[C@H]1C,inconclusive: 22.7%
9,CC(=O)NC[C@H]1[C@@H](c2ccc(-c3ccccc3F)cc2)[C@@H](CO)N1C(C)=O,active: 41.4%
10,Cc1noc(C)c1NC(=O)Nc1ccc2c(c1)C(=O)N(C)[C@H]1CC[C@@H](CC(=O)NCc3ccc(Cl)cc3)O[C@@H]1CO2,inconclusive: 28.4%
11,Cc1cccc(C)c1NC(=O)COC(=O)c1cc(=O)[nH]c2ccccc12,inconclusive: 37.2%
12,CC(C)OC(=O)N(C)C[C@@H]1OCc2ccccc2-c2ccccc2C(=O)N([C@@H](C)CO)C[C@@H]1C,inactive: -3.07%
13,COc1ccc(NC(=O)Nc2cccc3c2O[C@H](CN(C)Cc2ccccc2)[C@H](C)CN([C@H](C)CO)C3=O)cc1,active: 29.5%
14,O=C1NC[C@H](Cc2ccc(O)cc2)N(C[C@@H]2CCCN2C[C@H](Cc2ccccc2)N2C[C@H](Cc3ccc(O)cc3)N(CC3CCCCCC3)C(=O)C2=O)C1=O,inconclusive: 27.3%
15,COc1ccc(-c2c(-c3ccc(O)cc3O)n[nH]c2C(F)(F)F)cc1,inactive: 10.2%
16,O=C(NCCN1C(=O)S/C(=C\c2ccccc2F)C1=O)C1CC(=O)N(Cc2ccccc2)C1 (stereo not drawn),inconclusive: 37.3%
17,O=C(Nc1ccccc1C(F)(F)F)C(O)(c1ccccc1)C1CCCCC1 (stereo not drawn),active: 49.6%
18,COC(=O)C(Cc1csc2ccc(Cl)cc12)NC(=O)c1ccc(Cl)cc1 (stereo not drawn),active: 96%
19,CCS(=O)(=O)Nc1ccc2c(c1)C(=O)N(C)[C@@H]1CC[C@H](CC(=O)Nc3ccccc3)O[C@H]1CO2,inactive: -2.7%
20,COc1ccc2c3c([nH]c2c1)[C@@H](CO)N(Cc1ccc(F)cc1)CC31CN(C(=O)NC(C)C)C1,active: 93.3%
21,CSc1ccccc1NC(=O)CN(C)C(C)C(=O)NC(=O)NC1CCCCC1 (stereo not drawn),inconclusive: 27.8%
22,CCCC#Cc1ccc([C@@H]2[C@H]3CN(C(=O)NC4CCCC4)CC(=O)N3[C@H]2CO)cc1,active: 22.2%
23,CCCN1[C@@H]2Cn3c(ccc(C4=CCCC4)c3=O)[C@H]1[C@@H](C(=O)NCc1ccccn1)[C@@H]2CO,inactive: -9.34%
24,Cc1ccccc1S(=O)(=O)N1CC[C@@H]2[C@@H](CO)N(C)c3ccc(-c4cccc(F)c4)cc3[C@@H]21,active: 44.4%
25,C[C@@H](NC(=O)c1nc[nH]c1C(=O)NCc1ccccc1)c1ccccc1,inconclusive: 28.4%

row,SMILES,CPE inhibition
1,O=C(C[C@H]1C=C[C@H](NC(=O)CCN2CCCCC2)[C@@H](CO)O1)Nc1ccccc1,inactive: -0.357%
2,Cc1cc(CN2CCN(CC(=O)Nc3cc(C(F)(F)F)ccc3-n3cncn3)CC2)no1,inconclusive: 34.3%
3,CC(=O)Nc1ccc(OCc2nnc(-c3ccccc3)o2)cc1,inactive: -0.67%
4,O=C(CCCOc1ccc(Cl)cc1Cl)NCCc1nnc2ccccn12,inactive: -1.67%
5,C[C@@H]1CN([C@H](C)CO)C(=O)c2cc(NC(=O)Nc3ccccc3)ccc2O[C@H]1CN(C)C(=O)Nc1ccc(C(F)(F)F)cc1,inactive: -3.58%
6,O=C(CN1CCOCC1)N1CCCCN2[C@H](CO)[C@@H](c3ccc(/C=C/c4ccccc4)cc3)[C@@H]2C1,inconclusive: 27.4%
7,NC(=O)Nc1ccc(C(=O)OCC(=O)Nc2ccc([N+](=O)[O-])cc2C(F)(F)F)cc1,inconclusive: 67.7%
8,Cn1c(=O)[nH]c(=O)c2cc(C(=O)c3cc(F)ccc3O)cnc21,inactive: -0.198%
9,Nc1nc[nH]c(=O)c1N=Cc1ccccc1,inconclusive: 25.6%
10,O=C1c2ccccc2C(c2nnnn2-c2ccc3c(c2)OCCO3)N1CCc1ccccc1F (stereo not drawn),inactive: -14.5%
11,CCOc1ccc(OCC)c(NC(=O)CN(c2ccc(OC)cc2)S(=O)(=O)c2c(C)noc2C)c1,inconclusive: 31.3%
12,Cc1ccc(/C=C/C(=O)O)cc1S(=O)(=O)N1CCc2ccccc21,inactive: 8.9%
13,Cn1cc(S(=O)(=O)N2CCOCC2)cc1C(=O)NCc1ccccc1Cl,inconclusive: 34.8%
14,COc1cc(OC)c(C2CC(=O)N3CN(C)CSC3=C2C#N)cc1OC (stereo not drawn),inactive: -5.17%
15,COc1ccc(CCNC(=O)COC(=O)c2cc(=O)c3ccccc3o2)cc1,inconclusive: 20.1%
16,COc1ccc(C(=O)c2c3ccc(OC)cc3[n+]([O-])n2CCCC(N)=O)cc1,inactive: 1.24%
17,CCN1CCCC1CNC(=O)c1cc(N)ccc1OC (stereo not drawn),inactive: -6.25%
18,Cc1nc2sc(C(c3cccs3)N3CCN(Cc4ccccc4)CC3)c(O)n2n1 (stereo not drawn),inconclusive: 24.7%
19,CC(C)Oc1ccc(/C=N/NC(=O)c2nnn(-c3nonc3N)c2CN(C)c2ccccc2)cc1,inconclusive: 26.9%
20,C[C@H]1CN([C@@H](C)CO)C(=O)Cc2cc(N(C)C)ccc2O[C@@H]1CN(C)Cc1ccncc1,inactive: -4.45%
21,CN(C)CC(=O)N1[C@H](CO)[C@@H](c2ccc(C#CC3CCCC3)cc2)[C@@H]1C#N,active: 34.1%
22,CCCNC(=O)N1CC2(C1)CN(C(=O)Nc1ccc(F)cc1)[C@H](CO)c1[nH]c3cc(OC)ccc3c12,active: 23.2%
23,COCC(=O)N1C[C@H]2[C@@H](c3ccccc31)[C@H](CO)N2C(=O)C1CCCC1,inactive: -1.04%
24,C[C@@H]1CN([C@@H](C)CO)S(=O)(=O)c2ccc(-c3ccc(C(=O)N(C)C)cc3)cc2O[C@@H]1CN(C)C(=O)C1CCC1,inactive: 3.09%
25,C[C@H]1CN([C@@H](C)CO)C(=O)Cc2cc(NC(=O)C3CC3)ccc2O[C@@H]1CN(C)S(=O)(=O)c1ccc(F)cc1,inconclusive: 22.1%

row,SMILES,CPE inhibition
1,Cc1cc(C)nc(NS(=O)(=O)c2cccs2)c1,inconclusive: 22.9%
2,CO[C@H](CN(C)S(=O)(=O)c1cccc(Cl)c1)[C@H](C)CN([C@H](C)CO)S(=O)(=O)c1ccc(Cl)cc1,inactive: -5.07%
3,C[C@H](CO)N1C[C@H](C)[C@@H](CN(C)Cc2ccncc2)Oc2ncc(-c3cccc(C#N)c3)cc2C1=O,inconclusive: 26.7%
4,COc1ccccc1C(O)P(=O)(OCC(C)C)c1ccc(N(C)C)cc1 (stereo not drawn),inconclusive: 27.9%
5,O=C(C[C@H]1C[C@@H]2c3cc(NC(=O)C4CCOCC4)ccc3O[C@@H]2[C@@H](CO)O1)NCc1ccc2c(c1)OCO2,inactive: 18.9%
6,CCN1CCN(S(=O)(=O)c2cccc3nsnc23)CC1,inconclusive: 33.7%
7,COc1ccccc1-c1ccc2n(c1=O)C[C@H]1[C@H](CO)[C@@H](C(=O)N3CCCCC3)N(C)[C@@H]21,inconclusive: 35%
8,O=C(CCc1ccccc1Cl)Nc1ccc(S(=O)(=O)Nc2nccs2)cc1,inconclusive: 51%
9,O=[N+]([O-])c1cc([N+](=O)[O-])c(Oc2c(F)ccc(F)c2F)cc1NN1CCCCC1,inconclusive: 63.8%
10,Cc1nn(C)c(C(=O)Sc2cccc(Cl)c2)c1[N+](=O)[O-],inactive: -5.13%
11,C=C1C(=O)[C@]23C[C@H]1CC[C@H]2[C@]1(C)[C@@H](OC(C)=O)CC[C@@](C)(C(=O)O)[C@H]1C[C@@H]3O,inconclusive: 27.5%
12,COC(=O)[C@H]1C[C@@]2(O)CN(S(=O)(=O)c3ccc(C)cc3)C[C@@]2(OC(=O)NCC2CCCCC2)C[C@H]1C(=O)OC,inconclusive: 21.7%
13,CN(C)C(=O)[C@@]1(Cc2ccccc2CN=[N+]=[N-])COC(c2ccc(OCCCO)cc2)=N1,inactive: -2.42%
14,O=C(O)C[C@@H]1CC[C@@H](NC(=O)CCN2CCCCC2)[C@@H](CO)O1,inconclusive: 21%
15,Cc1ccc(NC(=O)C2(C)CCN2Cc2csc3ccccc23)cc1 (stereo not drawn),inconclusive: 23.7%
16,CC(C)NC(=O)N1C[C@H]2[C@@H](c3ccccc31)[C@H](CO)N2C(=O)NC(C)C,inconclusive: 42.4%
17,COc1ccc(Sc2ccc(-c3nc4cnccn4c3NC3CCCCC3)cc2OC)cc1,inconclusive: 85.4%
18,COc1ccc(N2CCN(C3CCCN(Cc4cccc(OC)c4)C3)CC2)cc1 (stereo not drawn),inconclusive: 61%
19,COc1cc2ccccc2cc1C(=O)NC(=S)Nc1cc(C(=O)O)ccc1C,inconclusive: 26.3%
20,Cc1ccc(S(=O)(=O)N(C)[C@H]2C[C@H]3c4[nH]c5c(-c6ccccc6)cccc5c4CCN3C(=O)[C@H]2[C@H](C)O)cc1,inconclusive: 55.9%
21,Cc1ccc(C2=NCCn3c2c2ccc([N+](=O)[O-])cc2[n+]3[O-])cc1,inconclusive: 22.1%
22,S=c1[nH]nc(-c2ccccn2)n1/N=C/c1ccccc1,inconclusive: 26.6%
23,O=S(=O)(NCCC1CC1(Cl)Cl)c1ccc(Cl)cc1 (stereo not drawn),inactive: -4.24%

# 3 successive records out of the list so far:
row,SMILES,CPE inhibition
10,Cc1nn(C)c(C(=O)Sc2cccc(Cl)c2)c1[N+](=O)[O-],inactive: -5.13%
11,C=C1C(=O)[C@]23C[C@H]1CC[C@H]2[C@]1(C)[C@@H](OC(C)=O)CC[C@@](C)(C(=O)O)[C@H]1C[C@@H]3O,inconclusive: 27.5%
12,COC(=O)[C@H]1C[C@@]2(O)CN(S(=O)(=O)c3ccc(C)cc3)C[C@@]2(OC(=O)NCC2CCCCC2)C[C@H]1C(=O)OC,inconclusive: 21.7%
